Patent US20230140522A1, “COMPOSITION FOR AMELIORATING OR PREVENTING DECREASES IN BONE STRENGTH” (priority 2020, published 2023)

How the values were obtained:
[1] = system: MTP; settings: liver, OVX mice, ornithine 1% blended feed, vs OVX (ornithine non-administration) group
[2] = system: SREBP1c; settings: liver, OVX mice, ornithine 1% blended feed, vs OVX (ornithine non-administration) group
[3] = system: osteoporosis mouse model (OVX); settings: OVX mice, ornithine 1% blended feed, vs OVX (ornithine non-administration) group
[4] = system: PPARγ; settings: liver, OVX mice, ornithine 1% blended feed, vs OVX (ornithine non-administration) group

Cl.NCCC[C@H](N)C(=O)O [ornithine, L-Ornithine Monohydrochloride]
decreased: expression level of MTP [1] | expression level of SREBP1c [2] | liver weight (per body weight) [3] | expression level of PPARγ [4]
